Source: the supplement of paper PMC10849652
The other results are listed elsewhere or left out.

The chains behind the UniProt entries cited, without tags or fusion partners. Where a name states a change or a piece, a line headed by the entry shows the natural chain unless it says otherwise.
UniProt Q9NX47: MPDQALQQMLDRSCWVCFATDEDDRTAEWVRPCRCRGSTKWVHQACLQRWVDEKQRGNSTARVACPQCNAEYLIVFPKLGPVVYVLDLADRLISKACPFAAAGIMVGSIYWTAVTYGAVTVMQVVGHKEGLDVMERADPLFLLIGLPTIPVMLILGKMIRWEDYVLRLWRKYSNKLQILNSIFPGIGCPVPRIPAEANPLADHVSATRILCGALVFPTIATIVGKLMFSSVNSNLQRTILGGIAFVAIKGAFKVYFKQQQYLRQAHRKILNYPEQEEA
UniProt Q13163: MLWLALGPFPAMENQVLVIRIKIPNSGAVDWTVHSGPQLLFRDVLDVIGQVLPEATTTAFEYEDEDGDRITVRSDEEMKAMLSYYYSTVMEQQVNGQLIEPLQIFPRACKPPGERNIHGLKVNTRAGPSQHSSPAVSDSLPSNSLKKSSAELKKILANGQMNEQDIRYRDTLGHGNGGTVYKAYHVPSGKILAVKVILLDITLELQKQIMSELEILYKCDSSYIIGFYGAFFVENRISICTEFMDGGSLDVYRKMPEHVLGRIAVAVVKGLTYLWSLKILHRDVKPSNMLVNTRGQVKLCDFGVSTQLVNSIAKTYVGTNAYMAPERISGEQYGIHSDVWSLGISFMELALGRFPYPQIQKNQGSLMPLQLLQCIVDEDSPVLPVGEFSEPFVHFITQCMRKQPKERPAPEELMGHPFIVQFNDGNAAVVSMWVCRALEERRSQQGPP
UniProt Q9NQ29: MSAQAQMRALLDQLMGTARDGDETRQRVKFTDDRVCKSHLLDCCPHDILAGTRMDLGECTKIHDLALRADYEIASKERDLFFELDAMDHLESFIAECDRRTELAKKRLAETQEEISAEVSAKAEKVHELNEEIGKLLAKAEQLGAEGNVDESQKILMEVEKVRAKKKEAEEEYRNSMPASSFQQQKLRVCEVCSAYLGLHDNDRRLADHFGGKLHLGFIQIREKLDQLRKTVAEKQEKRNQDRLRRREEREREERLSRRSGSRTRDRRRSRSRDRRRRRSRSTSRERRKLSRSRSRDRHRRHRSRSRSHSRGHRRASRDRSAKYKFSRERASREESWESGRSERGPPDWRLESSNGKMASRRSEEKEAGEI
UniProt Q9UPY8, whole entry, looked up: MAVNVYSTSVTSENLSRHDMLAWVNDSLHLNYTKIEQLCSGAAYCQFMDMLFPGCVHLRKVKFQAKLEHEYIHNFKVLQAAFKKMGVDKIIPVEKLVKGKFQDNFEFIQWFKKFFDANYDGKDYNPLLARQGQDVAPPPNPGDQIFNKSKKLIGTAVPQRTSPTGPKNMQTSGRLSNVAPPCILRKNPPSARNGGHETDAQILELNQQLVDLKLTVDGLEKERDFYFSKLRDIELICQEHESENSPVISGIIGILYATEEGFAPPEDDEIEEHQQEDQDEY
UniProt Q3KQU3: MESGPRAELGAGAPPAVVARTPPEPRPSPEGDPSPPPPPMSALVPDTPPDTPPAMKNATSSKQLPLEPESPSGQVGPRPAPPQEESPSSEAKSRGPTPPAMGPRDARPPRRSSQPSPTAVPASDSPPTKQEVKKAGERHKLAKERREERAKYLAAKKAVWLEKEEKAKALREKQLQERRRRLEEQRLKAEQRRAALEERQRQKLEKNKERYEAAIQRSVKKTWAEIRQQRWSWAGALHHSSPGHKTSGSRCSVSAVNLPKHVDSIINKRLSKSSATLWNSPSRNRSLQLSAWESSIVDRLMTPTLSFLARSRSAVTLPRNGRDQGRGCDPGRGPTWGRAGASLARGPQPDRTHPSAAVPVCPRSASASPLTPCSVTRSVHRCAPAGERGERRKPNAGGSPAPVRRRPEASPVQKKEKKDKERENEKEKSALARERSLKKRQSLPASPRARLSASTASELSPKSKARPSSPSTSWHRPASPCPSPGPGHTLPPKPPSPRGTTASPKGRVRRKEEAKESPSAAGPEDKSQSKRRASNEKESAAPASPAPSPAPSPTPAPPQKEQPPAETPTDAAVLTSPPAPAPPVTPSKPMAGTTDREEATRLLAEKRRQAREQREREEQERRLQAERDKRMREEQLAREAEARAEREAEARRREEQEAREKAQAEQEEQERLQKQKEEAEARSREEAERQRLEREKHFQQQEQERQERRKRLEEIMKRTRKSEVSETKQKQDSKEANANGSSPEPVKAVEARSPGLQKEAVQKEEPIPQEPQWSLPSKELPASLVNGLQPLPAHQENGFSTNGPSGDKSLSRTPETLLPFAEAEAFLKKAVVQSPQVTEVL
UniProt P43355: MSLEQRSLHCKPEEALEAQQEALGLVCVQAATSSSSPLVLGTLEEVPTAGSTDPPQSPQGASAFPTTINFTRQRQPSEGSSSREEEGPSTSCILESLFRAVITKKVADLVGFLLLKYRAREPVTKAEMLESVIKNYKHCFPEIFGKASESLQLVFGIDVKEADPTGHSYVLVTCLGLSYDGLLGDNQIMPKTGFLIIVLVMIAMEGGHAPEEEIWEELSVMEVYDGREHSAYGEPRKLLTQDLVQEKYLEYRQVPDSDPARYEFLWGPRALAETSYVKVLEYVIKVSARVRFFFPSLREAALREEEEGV
UniProt Q86V48: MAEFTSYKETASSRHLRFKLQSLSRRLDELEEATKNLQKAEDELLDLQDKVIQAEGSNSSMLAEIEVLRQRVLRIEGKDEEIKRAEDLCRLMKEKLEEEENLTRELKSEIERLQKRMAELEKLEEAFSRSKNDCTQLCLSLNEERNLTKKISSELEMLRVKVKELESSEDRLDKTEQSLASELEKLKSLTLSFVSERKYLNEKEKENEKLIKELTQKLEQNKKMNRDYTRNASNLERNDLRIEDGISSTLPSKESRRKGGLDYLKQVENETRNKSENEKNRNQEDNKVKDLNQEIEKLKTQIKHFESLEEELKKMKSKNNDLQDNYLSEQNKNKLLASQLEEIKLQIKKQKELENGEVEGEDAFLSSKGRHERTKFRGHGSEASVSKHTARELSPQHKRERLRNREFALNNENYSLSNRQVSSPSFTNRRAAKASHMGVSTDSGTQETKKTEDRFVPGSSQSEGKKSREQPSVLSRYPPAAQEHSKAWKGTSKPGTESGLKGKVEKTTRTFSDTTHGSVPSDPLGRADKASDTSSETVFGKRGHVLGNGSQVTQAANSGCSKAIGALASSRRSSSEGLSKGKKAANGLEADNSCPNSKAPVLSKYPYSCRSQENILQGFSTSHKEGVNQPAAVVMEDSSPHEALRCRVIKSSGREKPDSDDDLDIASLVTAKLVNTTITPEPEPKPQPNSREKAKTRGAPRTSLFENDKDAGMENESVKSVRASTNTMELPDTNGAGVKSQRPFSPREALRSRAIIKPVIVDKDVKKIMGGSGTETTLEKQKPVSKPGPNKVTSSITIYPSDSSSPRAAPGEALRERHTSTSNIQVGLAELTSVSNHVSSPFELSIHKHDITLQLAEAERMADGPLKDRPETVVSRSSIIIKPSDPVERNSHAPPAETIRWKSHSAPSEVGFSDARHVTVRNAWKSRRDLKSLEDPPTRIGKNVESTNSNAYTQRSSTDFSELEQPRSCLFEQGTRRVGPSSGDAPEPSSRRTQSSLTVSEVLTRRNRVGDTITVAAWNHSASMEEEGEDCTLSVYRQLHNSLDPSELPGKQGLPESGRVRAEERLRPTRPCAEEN
UniProt Q92585: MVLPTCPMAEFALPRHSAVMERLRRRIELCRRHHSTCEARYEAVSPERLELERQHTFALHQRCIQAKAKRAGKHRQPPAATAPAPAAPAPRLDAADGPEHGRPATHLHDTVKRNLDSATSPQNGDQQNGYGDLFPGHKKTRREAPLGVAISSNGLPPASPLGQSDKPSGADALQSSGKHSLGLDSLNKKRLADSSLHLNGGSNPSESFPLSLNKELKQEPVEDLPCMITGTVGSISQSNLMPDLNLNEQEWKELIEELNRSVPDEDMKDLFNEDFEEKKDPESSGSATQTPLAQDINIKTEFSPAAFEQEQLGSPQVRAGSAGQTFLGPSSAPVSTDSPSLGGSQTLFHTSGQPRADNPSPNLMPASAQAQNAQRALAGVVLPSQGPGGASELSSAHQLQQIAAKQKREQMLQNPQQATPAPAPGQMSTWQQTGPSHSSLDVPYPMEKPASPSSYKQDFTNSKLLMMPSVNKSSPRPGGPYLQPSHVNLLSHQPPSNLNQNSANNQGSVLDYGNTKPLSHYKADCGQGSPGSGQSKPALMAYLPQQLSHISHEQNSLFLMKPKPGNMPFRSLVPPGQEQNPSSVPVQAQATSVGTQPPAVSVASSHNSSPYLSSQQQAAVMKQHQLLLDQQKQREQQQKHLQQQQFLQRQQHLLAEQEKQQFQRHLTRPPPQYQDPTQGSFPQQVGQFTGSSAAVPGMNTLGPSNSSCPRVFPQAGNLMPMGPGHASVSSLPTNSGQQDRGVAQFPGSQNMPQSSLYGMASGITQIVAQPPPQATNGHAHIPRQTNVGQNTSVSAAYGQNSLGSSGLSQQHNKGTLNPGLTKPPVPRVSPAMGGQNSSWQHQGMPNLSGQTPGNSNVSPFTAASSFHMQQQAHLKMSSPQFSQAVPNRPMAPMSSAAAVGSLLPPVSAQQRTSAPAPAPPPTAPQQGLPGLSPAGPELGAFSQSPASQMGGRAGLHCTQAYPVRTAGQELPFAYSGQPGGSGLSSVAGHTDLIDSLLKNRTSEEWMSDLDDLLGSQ
UniProt Q13257, whole entry, looked up: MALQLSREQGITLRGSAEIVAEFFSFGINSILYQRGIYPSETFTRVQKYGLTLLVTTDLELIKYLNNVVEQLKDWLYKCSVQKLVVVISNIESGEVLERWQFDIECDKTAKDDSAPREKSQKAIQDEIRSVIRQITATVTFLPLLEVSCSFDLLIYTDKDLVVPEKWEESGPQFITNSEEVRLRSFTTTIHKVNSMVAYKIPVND
UniProt Q9Y4F3: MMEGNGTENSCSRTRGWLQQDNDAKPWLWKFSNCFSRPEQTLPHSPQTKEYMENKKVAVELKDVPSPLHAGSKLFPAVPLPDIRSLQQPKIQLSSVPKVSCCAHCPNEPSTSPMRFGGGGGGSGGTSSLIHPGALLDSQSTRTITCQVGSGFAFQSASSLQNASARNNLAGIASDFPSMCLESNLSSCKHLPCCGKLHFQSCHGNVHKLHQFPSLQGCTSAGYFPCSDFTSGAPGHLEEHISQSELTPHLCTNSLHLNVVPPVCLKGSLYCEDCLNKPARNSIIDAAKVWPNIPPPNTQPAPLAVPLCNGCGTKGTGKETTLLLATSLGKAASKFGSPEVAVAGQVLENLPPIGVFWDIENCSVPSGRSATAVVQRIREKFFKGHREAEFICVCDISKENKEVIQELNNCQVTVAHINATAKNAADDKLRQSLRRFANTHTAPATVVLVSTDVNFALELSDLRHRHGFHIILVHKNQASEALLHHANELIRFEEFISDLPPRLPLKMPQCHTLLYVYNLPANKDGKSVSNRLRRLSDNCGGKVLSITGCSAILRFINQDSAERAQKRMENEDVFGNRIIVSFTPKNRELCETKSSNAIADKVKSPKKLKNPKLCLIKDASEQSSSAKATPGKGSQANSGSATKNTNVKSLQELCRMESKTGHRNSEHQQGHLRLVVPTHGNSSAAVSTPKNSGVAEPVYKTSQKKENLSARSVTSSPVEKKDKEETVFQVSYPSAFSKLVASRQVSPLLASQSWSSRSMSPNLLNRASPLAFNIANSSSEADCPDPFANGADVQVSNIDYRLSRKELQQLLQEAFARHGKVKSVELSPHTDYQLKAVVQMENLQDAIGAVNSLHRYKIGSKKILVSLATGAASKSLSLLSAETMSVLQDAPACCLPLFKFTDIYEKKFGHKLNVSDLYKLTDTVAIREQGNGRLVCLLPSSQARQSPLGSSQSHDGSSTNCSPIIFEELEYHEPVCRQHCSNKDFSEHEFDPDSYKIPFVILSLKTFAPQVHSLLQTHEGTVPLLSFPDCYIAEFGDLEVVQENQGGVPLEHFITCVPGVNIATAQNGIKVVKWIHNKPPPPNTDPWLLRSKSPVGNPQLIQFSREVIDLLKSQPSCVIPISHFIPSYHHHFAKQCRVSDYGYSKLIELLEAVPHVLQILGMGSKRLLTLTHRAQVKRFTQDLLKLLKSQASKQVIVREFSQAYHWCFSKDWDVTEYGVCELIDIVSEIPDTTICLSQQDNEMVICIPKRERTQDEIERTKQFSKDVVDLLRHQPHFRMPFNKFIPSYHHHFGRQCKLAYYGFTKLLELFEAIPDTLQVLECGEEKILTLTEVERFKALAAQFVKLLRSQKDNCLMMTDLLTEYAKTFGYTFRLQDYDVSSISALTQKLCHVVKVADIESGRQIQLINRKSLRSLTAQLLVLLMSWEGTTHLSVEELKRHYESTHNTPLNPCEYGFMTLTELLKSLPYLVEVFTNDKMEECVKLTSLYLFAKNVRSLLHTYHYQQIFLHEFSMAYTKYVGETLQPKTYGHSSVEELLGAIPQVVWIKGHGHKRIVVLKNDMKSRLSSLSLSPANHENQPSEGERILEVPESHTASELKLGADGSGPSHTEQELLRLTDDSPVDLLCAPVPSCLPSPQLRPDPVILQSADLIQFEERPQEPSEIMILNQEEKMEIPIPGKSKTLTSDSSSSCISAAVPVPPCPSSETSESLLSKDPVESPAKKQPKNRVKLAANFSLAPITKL

Legend:
Test in all cases: log2 fold change, soluble protein after heating vs DMSO (PISA); higher = thermal stabilisation; K562 lysate, 10 uM; active = over 0.2 and 3.5 SD of the protein, either way, in both replicates (recomputed)
erlotinib = compound: C#Cc1cccc(Nc2ncnc3cc(OCCOC)c(OCCOC)cc23)c1 [erlotinib]
Outline: (§1)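 Following dounce homogenisation of K562 pellets in PBS pH 7.4 with 1 mM MgCl2, crude extract at 1 mg/mL protein was incubated for 30 min with 10 μM compound. Aliquots were then heated for 3 min over 48°C-58°C and pooled, NP-40 was added to 0.5% at 4°C, and soluble protein was recovered as the supernatant at 21,000xg for 90 min. Channel-sum-equalised TMTpro 16plex LC-MS/MS quantified this protein. Each value, from duplicates, is a log-two fold change in thermal stability relative to solvent controls.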

[1] = compound: C/C(=N\NC(=O)C1=CC(=CC=C1)S(=O)(=O)N2CCOCC2)/C3=C(C=CC(=C3)Cl)O
Outline: as §1

[2] = compound: C1=CC(=CC=C1C2=NC3=C(N2)C=C(C=C3)C(=O)N)OC4=CC=C(C=C4)Cl
Outline: as §1

[3] = compound: C1=CC2=C(C=CC(=C2)/C=C\3/C(=O)NC(=NCC4=CC=CS4)S3)N=C1
Outline: as §1

[4] = compound: C1=CC2=NC=CN=C2C=C1/C=C/3\C(=O)NC(=O)S3
Outline: as §1

[5] = compound: C1=CC=C(C=C1)C2=NC(=C(N2)C3=CC=NC=C3)C4=CC(=C(C=C4)Cl)O
Outline: as §1

[6] = compound: C1=CC=C2C(=C1)C3=NNC4=CC=CC(=C43)C2=O
Outline: as §1

[7] = compound: C1CCN(C1)C(=O)NC2=CC=CC(=C2)NC3=NC=C(C(=N3)NCCC4=CN=CN4)Br
Outline: as §1

[8] = compound: C1CN(CCC1(CC2=CC=C(C=C2)Cl)N)C3=NC=NC4=C3C=CN4
Outline: as §1

IRAK-1-4 Inhibitor I = compound: C1COCCN1CCN2C3=CC=CC=C3N=C2NC(=O)C4=CC(=CC=C4)[N+](=O)[O-] [IRAK-1-4 Inhibitor I]
Outline: as §1

Target | log2 fold change (erlotinib) | log2 fold change [1] | log2 fold change [2] | log2 fold change [3] | log2 fold change [4] | log2 fold change [5] | log2 fold change [6] | log2 fold change [7] | log2 fold change [8] | log2 fold change (IRAK-1-4 Inhibitor I)
MARCHF5 (UniProt Q9NX47) | inactive: -0.004 | inactive: -0.125 | inactive: -0.018 | inactive: 0 | inactive: -0.013 | inactive: -0.022 | inactive: -0.036 | inactive: -0.03 | inactive: 0.043 | inactive: 0.078
MAP2K5 (UniProt Q13163) | inactive: 0.16 | inactive: 0.153 | inactive: -0.024 | inactive: 0.142 | inactive: -0.097 | inactive: -0.015 | inactive: 0.06 | inactive: -0.007 | inactive: -0.024 | inactive: 0.144
LUC7L (UniProt Q9NQ29) | inactive: -0.024 | inactive: 0.021 | inactive: -0.097 | inactive: 0.015 | inactive: -0.067 | inactive: -0.023 | inactive: 0.01 | inactive: -0.02 | inactive: -0.004 | inactive: -0.026
MAGED1 isoform 2 (UniProt Q9Y5V3) | inactive: 0.082 | inactive: 0.292 | inactive: 0.148 | inactive: -0.208 | inactive: -0.126 | inactive: -0.025 | inactive: -0.001 |  |  | inactive: 0.084
MAPRE3 (UniProt Q9UPY8) | inactive: -0.007 | inactive: -0.005 | inactive: -0.004 | inactive: 0.066 | inactive: 0.022 | inactive: 0.011 | inactive: 0.025 | inactive: 0.02 | inactive: 0.027 | inactive: -0.01
LYN (UniProt P07948) | inactive: 0.054 | inactive: -0.047 | inactive: 0.026 | inactive: -0.011 | inactive: -0.07 | inactive: -0.022 | inactive: 0.025 | inactive: 0.07 | inactive: -0.042 | inactive: 0.487
MAP7D1 (UniProt Q3KQU3) | inactive: 0.004 | inactive: -0.003 | inactive: -0.009 | inactive: 0.001 | inactive: -0.003 | inactive: 0.031 | inactive: 0.006 | inactive: 0.018 | inactive: -0.006 | inactive: 0.028
MAP11 (UniProt Q8WVR3) | inactive: 0.013 | inactive: -0.018 | inactive: -0.009 | inactive: 0.006 | inactive: 0.061 | inactive: -0.004 | inactive: 0.064 | inactive: -0.135 | inactive: 0.02 | inactive: -0.02
MAP2K7 isoform 4 (UniProt O14733) | inactive: -0.042 | inactive: -0.034 | inactive: 0.037 | inactive: 0.091 | inactive: 0.241 | inactive: 0.044 | active: 0.586 | inactive: -0.106 | inactive: 0.078 | inactive: -0.123
MAGEA1 (UniProt P43355) | inactive: -0.054 | inactive: 0.088 | inactive: -0.005 | inactive: 0.042 | inactive: -0.007 | inactive: -0.003 | inactive: 0.048 | inactive: -0.009 | inactive: -0.034 | inactive: -0.004
MAP1S (UniProt Q66K74) | inactive: 0.027 | inactive: 0 | inactive: -0.023 | inactive: -0.016 | inactive: -0.018 | inactive: 0.003 | inactive: -0.027 | inactive: -0.044 | inactive: 0.005 | inactive: 0.01
MAT2A (UniProt P31153) | inactive: -0.019 | inactive: 0.024 | inactive: 0.017 | inactive: -0.003 | inactive: -0.011 | inactive: -0.006 | inactive: -0.006 | inactive: 0.016 | inactive: 0 | inactive: 0.012
MAN2A1 (UniProt Q16706) | inactive: -0.012 | inactive: 0.02 | inactive: -0.001 | inactive: -0.066 | inactive: -0.041 | inactive: -0.005 | inactive: -0.051 | inactive: -0.057 | inactive: 0.043 | inactive: 0.019
LZTS1 (UniProt Q9Y250) | inactive: 0.182 | inactive: 0.832 | inactive: 0.291 | inactive: -0.011 | inactive: -0.12 | inactive: 0.113 | inactive: -0.075 | inactive: -0.2 | inactive: -0.07 | inactive: 0.055
MAPK3 (UniProt P27361) | inactive: 0 | inactive: 0.02 | inactive: 0 | inactive: -0.025 | inactive: 0.031 | inactive: 0.01 | inactive: 0.052 | inactive: 0.021 | inactive: 0.055 | inactive: 0.049
LUZP1 (UniProt Q86V48) | inactive: -0.074 | inactive: -0.06 | inactive: -0.033 | inactive: 0.027 | inactive: -0.028 | inactive: -0.009 | inactive: 0.031 | inactive: -0.009 | inactive: 0.009 | inactive: 0.085
MAML1 (UniProt Q92585) | inactive: -0.009 | inactive: 0.007 | inactive: -0.026 | inactive: -0.004 | inactive: -0.023 | inactive: 0.084 | inactive: 0.275 | inactive: -0.065 | inactive: 0.009 | inactive: 0.02
MAGI1 isoform 6 (UniProt Q96QZ7) | inactive: 0.008 | inactive: 0.01 | inactive: 0.003 | inactive: -0.005 | inactive: -0.036 | inactive: -0.012 | inactive: -0.061 | inactive: 0.028 | inactive: 0.036 | inactive: -0.021
MAD2L1 (UniProt Q13257) | inactive: -0.026 | inactive: 0.032 | inactive: -0.025 | inactive: -0.021 | inactive: 0.007 | inactive: -0.003 | inactive: -0.001 | inactive: -0.022 | inactive: -0.018 | inactive: 0.02
MARF1 (UniProt Q9Y4F3) | inactive: 0.025 | inactive: 0.231 | inactive: 0.043 | inactive: -0.157 | inactive: 0.122 | inactive: 0.019 | inactive: 0.073 | inactive: -0.111 | inactive: -0.035 | inactive: -0.003
MAPK1 (UniProt P28482) | inactive: -0.021 | inactive: -0.017 | inactive: 0.001 | inactive: 0.001 | inactive: -0.016 | inactive: -0.003 | inactive: 0.065 | inactive: 0.017 | inactive: 0.009 | inactive: -0.009
MAGEA9 (UniProt P43362) | inactive: 0.001 | inactive: -0.118 | inactive: -0.027 | inactive: -0.015 | inactive: -0.044 | inactive: -0.005 | inactive: -0.051 | inactive: 0.012 | inactive: 0.022 | inactive: 0.03
MAPRE3 isoform 2 (UniProt Q9UPY8) | inactive: 0.021 | inactive: 0.04 | inactive: -0.164 | inactive: -0.053 | inactive: -0.286 | inactive: -0.002 | inactive: 0.018 |  |  | inactive: 0.095

Single entries from the list.
In log2 fold change [5], LYN (UniProt P07948) is entered as inactive: -0.022
In log2 fold change [2], MAPRE3 isoform 2 (UniProt Q9UPY8) is entered as inactive: -0.164
